{"source": "paper PMC6028546", "about": "“Control of mitotic chromosome condensation by the fission yeast transcription factor Zas1”", "test_system": "T1, Zas1 (short cDNA ORF, two zinc fingers) (Schizosaccharomyces pombe)", "T1 sequence (looked up)": "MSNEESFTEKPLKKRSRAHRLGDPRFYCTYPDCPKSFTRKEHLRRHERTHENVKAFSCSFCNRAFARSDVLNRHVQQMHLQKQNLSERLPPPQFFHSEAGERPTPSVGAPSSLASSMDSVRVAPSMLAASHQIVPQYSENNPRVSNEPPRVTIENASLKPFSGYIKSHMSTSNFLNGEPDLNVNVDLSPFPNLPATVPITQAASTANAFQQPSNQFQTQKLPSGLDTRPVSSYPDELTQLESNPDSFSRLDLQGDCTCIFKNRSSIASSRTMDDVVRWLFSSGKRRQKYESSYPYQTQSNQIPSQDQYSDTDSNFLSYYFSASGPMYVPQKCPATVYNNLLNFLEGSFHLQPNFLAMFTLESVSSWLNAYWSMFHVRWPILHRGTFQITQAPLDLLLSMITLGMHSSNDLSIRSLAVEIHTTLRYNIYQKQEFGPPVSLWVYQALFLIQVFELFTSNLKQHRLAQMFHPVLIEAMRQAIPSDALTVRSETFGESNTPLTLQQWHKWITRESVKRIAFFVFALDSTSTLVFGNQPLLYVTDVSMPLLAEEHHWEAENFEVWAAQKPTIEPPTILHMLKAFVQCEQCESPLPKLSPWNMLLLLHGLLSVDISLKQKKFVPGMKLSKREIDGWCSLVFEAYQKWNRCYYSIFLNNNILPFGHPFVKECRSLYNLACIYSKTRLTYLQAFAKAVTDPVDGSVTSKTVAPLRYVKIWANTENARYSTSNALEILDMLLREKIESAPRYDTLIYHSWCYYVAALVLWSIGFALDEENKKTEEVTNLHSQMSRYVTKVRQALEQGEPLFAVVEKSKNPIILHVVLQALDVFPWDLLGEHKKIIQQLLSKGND", "experiment": "EMSA", "conditions": "20 uM ZnCl2, 5 mM MgCl2; EMSA: 10 mM Tris-HCl pH 8.0, 125 mM NaCl, 5 mM MgCl2, 20 uM ZnCl2; 400 nM DNA, 0/200/400/800 nM Zas1; 90 min on ice; 1.8% agarose, Tris-acetate pH 8.7, 6 C; recombinant protein; residues 1-845; label: 5' 6-FAM on strand 1", "note": "A weaker result is weaker than the reference pair of the same experiment. Tags and fusion partners may be left off the protein sequences shown."}
{"sequence": "AATGGACCTCTGCACAGGACATATAGGATGTGTTATTGT (double strand) [Pcnd1 mut]", "values": [{"measurement": "binding result", "value": "binds more weakly"}]}
{"sequence": "AAAGCCTCTGCGAAGGTCGTCTTTCTCTGCATAGATTATT (double strand) [Ppob1 mut]", "values": [{"measurement": "binding result", "value": "binds more weakly"}]}
